Structures can show the parent of a compound that is named as a salt. At least one compound was matched to its structure with a doubt left.
The compounds below were run on neuronal uptake of 5-hydroxytryptamine and noradrenaline (assay: Overall assessment of the uptake tests (selectivity NA versus 5-HT)). Conditions: summary of the results of Table I.
Parameters: species or system mouse
In the case of `CC(N)/C=C(\c1ccccc1)c1ccc(Br)cc1` (stereo not drawn) [CPK 204, (E)-3-amino-1-(4-bromophenyl)-1-phenylbutene oxalate], the “activity on uptake of noradrenaline and 5-hydroxytryptamine (assessment in words)” value (“activity on uptake” for short) is reported as “pronounced selective activity on uptake of 5-hydroxytryptamine”. `CC(N)/C=C(\c1ccccc1)c1cccc(Br)c1` (stereo not drawn) [CPK 215, (E)-3-amino-1-(3-bromophenyl)-1-phenylbutene] was tested, and the “activity on uptake” value was “pronounced selective activity on uptake of noradrenaline”. With `CC(N)/C=C(/c1ccccc1)c1cccc(Br)c1` (stereo not drawn) [CPK 217, (Z)-3-amino-1-(3-bromophenyl)-1-phenylbutene] the “activity on uptake” value was “pronounced selective activity on uptake of noradrenaline”.
